The target of the experiment is T1, Nup133 (mouse (endogenous in primary OPCs)) (UniProt Q8R0G9).
T1 sequence: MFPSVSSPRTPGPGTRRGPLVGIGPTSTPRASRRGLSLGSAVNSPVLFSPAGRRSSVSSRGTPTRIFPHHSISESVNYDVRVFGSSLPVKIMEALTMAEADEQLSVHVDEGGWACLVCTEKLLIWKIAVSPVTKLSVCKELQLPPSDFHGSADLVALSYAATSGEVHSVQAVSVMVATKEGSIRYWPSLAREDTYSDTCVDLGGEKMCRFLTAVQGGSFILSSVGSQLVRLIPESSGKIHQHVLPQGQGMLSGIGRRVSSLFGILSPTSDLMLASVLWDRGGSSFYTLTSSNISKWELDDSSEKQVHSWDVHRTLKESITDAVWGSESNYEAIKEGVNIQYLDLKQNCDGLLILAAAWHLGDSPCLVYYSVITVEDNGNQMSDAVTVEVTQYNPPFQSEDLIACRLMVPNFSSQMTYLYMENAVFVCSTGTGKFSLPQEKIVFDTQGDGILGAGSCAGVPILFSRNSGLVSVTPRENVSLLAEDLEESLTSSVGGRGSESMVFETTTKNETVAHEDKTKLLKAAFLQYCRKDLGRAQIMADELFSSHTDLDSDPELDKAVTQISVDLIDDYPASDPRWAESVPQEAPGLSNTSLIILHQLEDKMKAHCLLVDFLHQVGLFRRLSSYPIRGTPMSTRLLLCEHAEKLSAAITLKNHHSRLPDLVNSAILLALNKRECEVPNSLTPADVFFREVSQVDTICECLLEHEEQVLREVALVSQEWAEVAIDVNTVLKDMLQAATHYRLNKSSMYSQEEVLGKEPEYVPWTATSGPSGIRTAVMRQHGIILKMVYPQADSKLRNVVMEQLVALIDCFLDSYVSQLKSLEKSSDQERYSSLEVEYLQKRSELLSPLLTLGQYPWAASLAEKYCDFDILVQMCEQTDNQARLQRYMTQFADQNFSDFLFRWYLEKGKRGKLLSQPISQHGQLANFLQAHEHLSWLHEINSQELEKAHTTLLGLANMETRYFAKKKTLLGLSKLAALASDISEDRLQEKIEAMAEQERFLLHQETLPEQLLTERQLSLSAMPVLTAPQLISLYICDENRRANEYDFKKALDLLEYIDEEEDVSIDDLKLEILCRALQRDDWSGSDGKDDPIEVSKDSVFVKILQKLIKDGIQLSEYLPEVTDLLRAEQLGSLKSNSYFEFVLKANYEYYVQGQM
Briefly: co-IP; immunoprecipitation with anti-Nup133 antibody from male and female mouse OPCs under normoxia (3% O2) and hyperoxia (24 h 80% O2); western blot for ERα.

By UniProt entry, the sequences of proteins in these tests, tags left out.
UniProt P19785: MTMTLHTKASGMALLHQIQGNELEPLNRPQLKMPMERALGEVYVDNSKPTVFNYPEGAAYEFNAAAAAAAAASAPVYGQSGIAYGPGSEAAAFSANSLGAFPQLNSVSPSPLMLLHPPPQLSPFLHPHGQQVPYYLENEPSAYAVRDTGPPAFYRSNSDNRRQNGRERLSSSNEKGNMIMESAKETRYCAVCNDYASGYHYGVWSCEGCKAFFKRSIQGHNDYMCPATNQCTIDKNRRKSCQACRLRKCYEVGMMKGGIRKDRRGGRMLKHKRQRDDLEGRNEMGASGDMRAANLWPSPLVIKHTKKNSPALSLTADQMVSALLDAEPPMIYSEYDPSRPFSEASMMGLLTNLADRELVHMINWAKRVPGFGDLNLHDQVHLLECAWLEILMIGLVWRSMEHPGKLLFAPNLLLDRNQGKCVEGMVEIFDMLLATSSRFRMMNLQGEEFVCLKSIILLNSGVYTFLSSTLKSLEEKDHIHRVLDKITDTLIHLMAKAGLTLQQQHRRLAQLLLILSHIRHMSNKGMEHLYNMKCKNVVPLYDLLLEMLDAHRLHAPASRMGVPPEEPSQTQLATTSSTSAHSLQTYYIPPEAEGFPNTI

No constants are given. Whether binding was seen depends on the method and setting. In cells and extracts the contact can be indirect. Some binding calls cover weakened binding; strength is not graded here.

For the substance “estrogen receptor alpha (from UniProt P19785 1-599)”, the binding entry is “binds”.
